Assay results as given in US20210379112A1, “STEM CELL THERAPY” (PLASTICELL LIMITED, priority 2018, published 2021).

System: UCB derived CD133+ cells
Assay: Ex vivo expansion of umbilical cord blood CD133+ cells (flow cytometry, counting beads)
Assay type: cell-based, human
From the text: Human UCB units were collected with written informed pre-consent and ethical approval from Oxford and Berkshire National Research Ethical Committees and studies conducted with approval of the NHSBT research committee. UCB mononuclear cells (MNC) were isolated by density gradient centrifugation on lymphocyte separation medium 1077 (PAA Laboratories, Pasching, Austria; density<1.077 g/ml). CD133+ cells were isolated from the MNC with immunomagnetic beads (Miltenyi Biotec, Germany). After isolation, the cells were cryopreserved in 10% DMSO in FCS (fetal calf serum) and stored at −150° C. in aliquots of 1×10^5 cells/vial. Cells were analysed for the purity of the isolation with flow cytometry on a BD LSR II (BD Biosciences, CA) using CD34-APC, CD133-PE and the appropriate isotype controls (all Miltenyi Biotec). […]
The next day cells were harvested from the plates counted, and seeded into 24 well Nanex plates (Compass Biomedical) or standard tissue culture treated plates at 2500 cells/well in 1 mL basal media (StemSpan ACF with 100 ng/mL SCF, 100 ng/mL FLT3LG and 20 ng/mL TPO) containing an HDAC inhibitor (for most experiments scriptaid was used at a concentration of 1 μM). […]
Cell number was measured using flow cytometry with the aid of counting beads (CountBright beads Life Technologies).

Question: What does the source list for `Cc1ccc(C(=O)NCCCCCC(=O)Nc2ccccc2N)cc1` [RG2833]?
Answer: fold expansion of total nucleated cells (TNC) compared to cells grown in basal media (5 days culture, vs basal media with cytokines, WR1065 added 16-20 h before harvest): increase; fold expansion of HSC compared to cells grown in basal media (5 days, result in words, FIG. 7-12): doubled
